# Data reported in the supplement of paper PMC8728848.
# The other results are listed elsewhere or left out.
# B1: Epa20 (Candida glabrata) (protein)
# chain: MGSSHHHHHHSSGLVPRGSHMASSNIPNNYPLGCSNKYSGHLPGLKMELYSYNYVNPRHPDPQNPGKLDQLYDPNLLGTYECFDSSYKDINYPRVGYKSKTLIGRSDGVSGILNFNFVPPWGCMPQKGQLPPAYNFKSNITLSNFTMILFGYFKPKISGNHIFSLHGDDLIYLNFGAGNAFDCCRQESSADNFGNYQAFSLWGINWEKKTLTVYLDMNTYYPIRIFYNNRDYQAIFNFSFKTEFDSSPVIDFQDYFFFLRDIDGGCPGEV
# What was measured:
# Assay in all cases: glycan array binding signal (z-score within array); higher = stronger binding
# Details in all cases: glycan notation: IUPAC condensed, linker removed
# [1] = target: Gal(b1-4)GlcNAc(b1-3)Gal(b1-4)GlcNAc(b1-2)Man(a1-3)[Gal(b1-4)GlcNAc(b1-3)Gal(b1-4)GlcNAc(b1-2)Man(a1-6)]Man(b1-4)GlcNAc(b1-4)[Fuc(a1-6)]GlcNAc
# Procedure, shortened: (§1)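 Glycan array data came from 3228 arrays in the Consortium for Functional Glycomics database, and only arrays with an available protein sequence were kept. Glycan names were put into IUPAC-condensed notation, and columns mapping to the same glycan were averaged. The binding signal is a within-array Z-score, averaged across arrays of one protein sequence run at different concentrations or buffers and across linkers. A negative Z-score can be read as non-binding.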
# [2] = target: Gal(b1-4)GlcNAc(b1-3)Gal(b1-4)GlcNAc(b1-2)[Gal(b1-4)GlcNAc(b1-3)Gal(b1-4)GlcNAc(b1-6)]Man(a1-6)[Gal(b1-4)GlcNAc(b1-3)Gal(b1-4)GlcNAc(b1-2)Man(a1-3)]Man(b1-4)GlcNAc(b1-4)GlcNAc
# Procedure, shortened: as §1
# [3] = target: Gal(b1-4)GlcNAc(b1-3)Gal(b1-4)GlcNAc(b1-2)[Gal(b1-4)GlcNAc(b1-3)Gal(b1-4)GlcNAc(b1-6)]Man(a1-6)[Gal(b1-4)GlcNAc(b1-3)Gal(b1-4)GlcNAc(b1-2)Man(a1-3)]Man(b1-4)GlcNAc(b1-4)[Fuc(a1-6)]GlcNAc
# Procedure, shortened: as §1
# [4] = target: Gal(b1-4)GlcNAc(b1-3)Gal(b1-4)GlcNAc(b1-3)Gal(b1-4)GlcNAc
# Procedure, shortened: as §1
# [5] = target: Gal(b1-4)GlcNAc(b1-3)Gal(b1-4)GlcNAc(b1-3)Gal(b1-4)GlcNAc(b1-2)Man(a1-3)[Gal(b1-4)GlcNAc(b1-3)Gal(b1-4)GlcNAc(b1-3)Gal(b1-4)GlcNAc(b1-2)Man(a1-6)]Man(b1-4)GlcNAc(b1-4)GlcNAc
# Procedure, shortened: as §1
# [6] = target: Gal(b1-4)GlcNAc(b1-3)Gal(b1-4)GlcNAc(b1-3)Gal(b1-4)GlcNAc(b1-2)Man(a1-3)[Gal(b1-4)GlcNAc(b1-3)Gal(b1-4)GlcNAc(b1-3)Gal(b1-4)GlcNAc(b1-2)Man(a1-6)]Man(b1-4)GlcNAc(b1-4)[Fuc(a1-6)]GlcNAc
# Procedure, shortened: as §1
# [7] = target: Gal(b1-4)GlcNAc(b1-3)Gal(b1-4)GlcNAc(b1-3)Gal(b1-4)GlcNAc(b1-2)[Gal(b1-4)GlcNAc(b1-3)Gal(b1-4)GlcNAc(b1-3)Gal(b1-4)GlcNAc(b1-6)]Man(a1-6)[Gal(b1-4)GlcNAc(b1-3)Gal(b1-4)GlcNAc(b1-3)Gal(b1-4)GlcNAc(b1-2)Man(a1-3)]Man(b1-4)GlcNAc(b1-4)[Fuc(a1-6)]GlcNAc
# Procedure, shortened: as §1
# [8] = target: Gal(b1-4)GlcNAc(b1-3)Gal(b1-4)GlcNAc(b1-3)Gal(b1-4)GlcNAc(b1-3)Gal(b1-4)GlcNAc(b1-2)Man(a1-3)[Gal(b1-4)GlcNAc(b1-3)Gal(b1-4)GlcNAc(b1-3)Gal(b1-4)GlcNAc(b1-3)Gal(b1-4)GlcNAc(b1-2)Man(a1-6)]Man(b1-4)GlcNAc(b1-4)GlcNAc
# Procedure, shortened: as §1
# [9] = target: Gal(b1-4)GlcNAc(b1-3)Gal(b1-4)GlcNAc(b1-3)Gal(b1-4)GlcNAc(b1-3)Gal(b1-4)GlcNAc(b1-2)Man(a1-3)[Gal(b1-4)GlcNAc(b1-3)Gal(b1-4)GlcNAc(b1-3)Gal(b1-4)GlcNAc(b1-3)Gal(b1-4)GlcNAc(b1-2)Man(a1-6)]Man(b1-4)GlcNAc(b1-4)[Fuc(a1-6)]GlcNAc
# Procedure, shortened: as §1
# [10] = target: Gal(b1-4)GlcNAc(b1-3)Gal(b1-4)GlcNAc(b1-3)Gal(b1-4)GlcNAc(b1-3)Gal(b1-4)GlcNAc(b1-2)[Gal(b1-4)GlcNAc(b1-3)Gal(b1-4)GlcNAc(b1-3)Gal(b1-4)GlcNAc(b1-3)Gal(b1-4)GlcNAc(b1-6)]Man(a1-6)[Gal(b1-4)GlcNAc(b1-3)Gal(b1-4)GlcNAc(b1-3)Gal(b1-4)GlcNAc(b1-3)Gal(b1-4)GlcNAc(b1-2)Man(a1-3)]Man(b1-4)GlcNAc(b1-4)[Fuc(a1-6)]GlcNAc
# Procedure, shortened: as §1
# [11] = target: Gal(b1-4)GlcNAc(b1-3)Gal(b1-4)GlcNAc(b1-3)Gal(b1-4)GlcNAc(b1-3)Gal(b1-4)GlcNAc(b1-3)Gal(b1-4)GlcNAc(b1-2)Man(a1-3)[Gal(b1-4)GlcNAc(b1-3)Gal(b1-4)GlcNAc(b1-3)Gal(b1-4)GlcNAc(b1-3)Gal(b1-4)GlcNAc(b1-3)Gal(b1-4)GlcNAc(b1-2)Man(a1-6)]Man(b1-4)GlcNAc(b1-4)GlcNAc
# Procedure, shortened: as §1
# [12] = target: Gal(b1-4)GlcNAc(b1-3)Gal(b1-4)GlcNAc(b1-3)Gal(b1-4)GlcNAc(b1-3)Gal(b1-4)GlcNAc(b1-3)Gal(b1-4)GlcNAc(b1-2)Man(a1-3)[Gal(b1-4)GlcNAc(b1-3)Gal(b1-4)GlcNAc(b1-3)Gal(b1-4)GlcNAc(b1-3)Gal(b1-4)GlcNAc(b1-3)Gal(b1-4)GlcNAc(b1-2)Man(a1-6)]Man(b1-4)GlcNAc(b1-4)[Fuc(a1-6)]GlcNAc
# Procedure, shortened: as §1
# [13] = target: Gal(b1-4)GlcNAc(b1-3)Gal(b1-4)GlcNAc(b1-3)Gal(b1-4)GlcNAc(b1-3)Gal(b1-4)GlcNAc(b1-3)Gal(b1-4)GlcNAc(b1-2)[Gal(b1-4)GlcNAc(b1-3)Gal(b1-4)GlcNAc(b1-3)Gal(b1-4)GlcNAc(b1-3)Gal(b1-4)GlcNAc(b1-3)Gal(b1-4)GlcNAc(b1-6)]Man(a1-6)[Gal(b1-4)GlcNAc(b1-3)Gal(b1-4)GlcNAc(b1-3)Gal(b1-4)GlcNAc(b1-3)Gal(b1-4)GlcNAc(b1-3)Gal(b1-4)GlcNAc(b1-2)Man(a1-3)]Man(b1-4)GlcNAc(b1-4)[Fuc(a1-6)]GlcNAc
# Procedure, shortened: as §1
# [14] = target: Gal(b1-4)GlcNAc(b1-3)Gal(b1-4)GlcNAc(b1-3)Gal(b1-4)GlcNAc(b1-3)Gal(b1-4)GlcNAc(b1-3)Gal(b1-4)GlcNAc(b1-3)Gal(b1-4)GlcNAc(b1-2)Man(a1-3)[Gal(b1-4)GlcNAc(b1-3)Gal(b1-4)GlcNAc(b1-3)Gal(b1-4)GlcNAc(b1-3)Gal(b1-4)GlcNAc(b1-3)Gal(b1-4)GlcNAc(b1-3)Gal(b1-4)GlcNAc(b1-2)Man(a1-6)]Man(b1-4)GlcNAc(b1-4)GlcNAc
# Procedure, shortened: as §1
# [15] = target: Gal(b1-4)GlcNAc(b1-3)Gal(b1-4)GlcNAc(b1-3)GalNAc
# Procedure, shortened: as §1
# [16] = target: Gal(b1-4)GlcNAc(b1-3)Gal(b1-4)GlcNAc(b1-3)[Gal(b1-4)GlcNAc(b1-3)Gal(b1-4)GlcNAc(b1-6)]GalNAc
# Procedure, shortened: as §1
# [17] = target: Gal(b1-4)GlcNAc(b1-3)Gal(b1-4)GlcNAc(b1-6)[Gal(b1-3)]GalNAc
# Procedure, shortened: as §1
# [18] = target: Gal(b1-4)GlcNAc(b1-3)Gal(b1-4)[Fuc(a1-3)]GlcNAc(b1-3)Gal(b1-4)[Fuc(a1-3)]GlcNAc
# Procedure, shortened: as §1
# [19] = target: Gal(b1-4)GlcNAc(b1-3)GalNAc
# Procedure, shortened: as §1
# [20] = target: Gal(b1-4)GlcNAc(b1-3)[Fuc(a1-3)GlcNAc(b1-6)]Gal(b1-4)Glc
# Procedure, shortened: as §1
# [21] = target: Gal(b1-4)GlcNAc(b1-3)[Gal(b1-4)GlcNAc(b1-6)]Gal(b1-4)GlcNAc
# Procedure, shortened: as §1
# [22] = target: Gal(b1-4)GlcNAc(b1-3)[GlcNAc(b1-6)]Gal(b1-4)GlcNAc
# Procedure, shortened: as §1
# [23] = target: Gal(b1-4)GlcNAc(b1-6)Gal(b1-4)GlcNAc
# Procedure, shortened: as §1
# [24] = target: Gal(b1-4)GlcNAc(b1-6)GalNAc
# Procedure, shortened: as §1
# [25] = target: Gal(b1-4)GlcNAc(b1-6)[Gal(b1-3)]GalNAc
# Procedure, shortened: as §1
# [26] = target: Gal(b1-4)GlcNAc(b1-6)[Gal(b1-4)GlcNAc(b1-3)]GalNAc
# Procedure, shortened: as §1
# Gal(b1-4)GlcNAc6P = target: Gal(b1-4)GlcNAc6P
# Procedure, shortened: as §1
# Gal(b1-6)Gal = target: Gal(b1-6)Gal
# Procedure, shortened: as §1
# Gal3S(b1-3)GalNAc = target: Gal3S(b1-3)GalNAc
# Procedure, shortened: as §1
# Gal3S(b1-3)GlcNAc = target: Gal3S(b1-3)GlcNAc
# Procedure, shortened: as §1
# [27] = target: Gal3S(b1-3)[Fuc(a1-4)]GlcNAc
# Procedure, shortened: as §1
# Gal3S(b1-4)Glc = target: Gal3S(b1-4)Glc
# Procedure, shortened: as §1
# Gal3S(b1-4)Glc6S = target: Gal3S(b1-4)Glc6S
# Procedure, shortened: as §1
# Gal3S(b1-4)GlcNAc = target: Gal3S(b1-4)GlcNAc
# Procedure, shortened: as §1
# [28] = target: Gal3S(b1-4)[Fuc(a1-3)]Glc6S
# Procedure, shortened: as §1
# [29] = target: Gal3S(b1-4)[Fuc(a1-3)]GlcNAc
# Procedure, shortened: as §1
# [30] = target: Gal3S(b1-4)[Fuc(a1-3)]GlcNAc6S
# Procedure, shortened: as §1
binder,measurement,setting,value
B1,glycan array binding signal (z-score),[1],0.003
same,glycan array binding signal (z-score),[2],0.965
same,glycan array binding signal (z-score),[3],1.2
same,glycan array binding signal (z-score),[4],-0.401
same,glycan array binding signal (z-score),[5],3.18
same,glycan array binding signal (z-score),[6],0.649
same,glycan array binding signal (z-score),[7],1.32
same,glycan array binding signal (z-score),[8],1.13
same,glycan array binding signal (z-score),[9],1.23
same,glycan array binding signal (z-score),[10],1.43
same,glycan array binding signal (z-score),[11],1.25
same,glycan array binding signal (z-score),[12],6.07
same,glycan array binding signal (z-score),[13],1.44
same,glycan array binding signal (z-score),[14],0.124
same,glycan array binding signal (z-score),[15],1.1
same,glycan array binding signal (z-score),[16],2.38
same,glycan array binding signal (z-score),[17],0.585
same,glycan array binding signal (z-score),[18],-1.35
same,glycan array binding signal (z-score),[19],-0.537
same,glycan array binding signal (z-score),[20],-0.202
same,glycan array binding signal (z-score),[21],-0.16
same,glycan array binding signal (z-score),[22],-0.32
same,glycan array binding signal (z-score),[23],-0.015
same,glycan array binding signal (z-score),[24],0.756
same,glycan array binding signal (z-score),[25],0.361
same,glycan array binding signal (z-score),[26],0.204
same,glycan array binding signal (z-score),Gal(b1-4)GlcNAc6P,0.35
same,glycan array binding signal (z-score),Gal(b1-6)Gal,-0.36
same,glycan array binding signal (z-score),Gal3S(b1-3)GalNAc,-0.457
same,glycan array binding signal (z-score),Gal3S(b1-3)GlcNAc,-0.241
same,glycan array binding signal (z-score),[27],0.569
same,glycan array binding signal (z-score),Gal3S(b1-4)Glc,-0.287
same,glycan array binding signal (z-score),Gal3S(b1-4)Glc6S,-0.099
same,glycan array binding signal (z-score),Gal3S(b1-4)GlcNAc,-0.516
same,glycan array binding signal (z-score),[28],2.1
same,glycan array binding signal (z-score),[29],0.129
same,glycan array binding signal (z-score),[30],1.41

# A stretch taken from the entries so far, for reference:
binder,measurement,setting,value
B1,glycan array binding signal (z-score),[27],0.569
same,glycan array binding signal (z-score),Gal3S(b1-4)Glc,-0.287
